# Experimental data: PubChem BioAssay AID248 (DTP/NCI, 2004)
# The list does not hold the whole screen: it gathers tests that were run many times, whatever their T/C, doses with no T/C, and many T/C values between a quarter and a half above the control. Further doses and runs are listed elsewhere. T/C gives the treated animals as a percentage of the vehicle group. Some entries give survivors of the animals treated and no T/C: the source holds a T/C of zero for them, seemingly a mark for toxic or unscored doses. Some doses without a T/C left all or most animals alive at the check, yet need not have been tolerated: survival well below the control is almost never listed, so the zero probably covers shortened survival too. Counts of survivors are from the toxicity check (mostly the fifth day) where no day follows; animals may have died later. Schedules are NCI's codes, taken here to give the interval after Q, in days (D) or hours (H), and the number of doses after X. Some entries were tested several times; the results are listed from low to high. Some schedules carry Z or #; the key to these is not given. Some molecules as drawn cover several salts, stereoisomers or complexes of the source; a dose is that of the sample tested. For survival time, the PubChem record calls one and a half times the control and up active, and a quarter to a half above the control has no call in these data; cut-offs in other NCI protocols can differ.
# System: L1210 leukemia ip in BDF1 mice, survival T/C
# Assay: NCI In Vivo Anticancer Drug Screen. Data for tumor model L1210 Leukemia (intraperitoneal) in B6D2F1 (BDF1) mice
# Settings: higher T/C = longer survival
# [1] = T/C endpoint: mean survival time, dose: 400.0 mg/kg/injection, schedule: Q04DX003 (ip), vehicle: Klucel (hydroxypropylcellulose) (HPC)
# [2] = T/C endpoint: mean survival time, dose: 200.0 mg/kg/injection, schedule: Q01DX001 (ip), vehicle: Klucel (hydroxypropylcellulose) (HPC)
# [3] = T/C endpoint: mean survival time, dose: 400.0 mg/kg/injection, schedule: Q01DX001 (ip), vehicle: Klucel (hydroxypropylcellulose) (HPC)
# [4] = T/C endpoint: mean survival time, dose: 400.0 mg/kg/injection, schedule: Q01DX001 (ip), vehicle: saline
# [5] = T/C endpoint: mean survival time, dose: 200.0 mg/kg/injection, schedule: Q04DX003 (ip), vehicle: saline
# [6] = T/C endpoint: mean survival time, dose: 400.0 mg/kg/injection, schedule: Q04DX003 (ip), vehicle: saline
# [7] = T/C endpoint: mean survival time, dose: 200.0 mg/kg/injection, schedule: Q04DX002 (ip), vehicle: saline with Tween-80
# [8] = T/C endpoint: mean survival time, dose: 400.0 mg/kg/injection, schedule: Q04DX002 (ip), vehicle: saline with Tween-80
structure (smiles),measurement,setting,value
Cc1c2cnccc2c(C)c2c1c1ccccc1n2CCOC(=O)c1ccccc1,survivor count,"T/C endpoint: mean survival time, dose: 200.0 mg/kg/injection, schedule: Q01DX009 (ip), vehicle: saline with Tween-80",6 of 6
CN1CN(c2ccccc2)CSC1=S,survivor count,[1],5 of 6
CC(C)=CCN1CCC2(C)c3cc(O)ccc3CC1C2C (centres undefined),survivor count,"T/C endpoint: mean survival time, dose: 400.0 mg/kg/injection, schedule: Q01DX009 (ip), vehicle: Klucel (hydroxypropylcellulose) (HPC)",1 of 6
CC1(C)N=C(N)N=C(N)N1c1cccc(OCCOc2cccc(N)c2)c1,survivor count,"T/C endpoint: mean survival time, dose: 80.0 mg/kg/injection, schedule: Q01DX001 (ip), vehicle: saline",0 of 6
same,survivor count,[2],0 of 3
same,survivor count,[3],0 of 3
CCCCCCCCCCNC(=O)C[n+]1cccc(C(=O)Nc2ccccc2)c1,survivor count,"T/C endpoint: mean survival time, dose: 50.0 mg/kg/injection, schedule: Q04DX003 (ip), vehicle: saline",4 of 6
same,survivor count,"T/C endpoint: mean survival time, dose: 100.0 mg/kg/injection, schedule: Q04DX003 (ip), vehicle: acetone",0 of 6
same,survivor count,"T/C endpoint: mean survival time, dose: 200.0 mg/kg/injection, schedule: Q04DX003 (ip), vehicle: acetone",1 of 6
same,survivor count,"T/C endpoint: mean survival time, dose: 400.0 mg/kg/injection, schedule: Q04DX003 (ip), vehicle: acetone",0 of 6
CC(Cl)CNC(=O)N(CC(C)Cl)N=O (centres undefined),survivor count,"T/C endpoint: mean survival time, dose: 1500.0 mg/kg/injection, schedule: Q01DX001 (ip), vehicle: carboxymethylcellulose (CMC)",1 of 6
same,survivor count,"T/C endpoint: mean survival time, dose: 2000.0 mg/kg/injection, schedule: Q01DX001 (ip), vehicle: carboxymethylcellulose (CMC)",2 of 6
C#CC1CC2C3CCC4=CC(=O)CCC4(C)C3CCC2(C)C1N(C)C (centres undefined),survivor count,"T/C endpoint: mean survival time, dose: 200.0 mg/kg/injection, schedule: Q01DX001 (sc), vehicle: steroid suspending solution",2 of 4
same,survivor count,"T/C endpoint: mean survival time, dose: 400.0 mg/kg/injection, schedule: Q01DX001 (sc), vehicle: steroid suspending solution",0 of 4
S=C(S)N1CCC(CCCC2CCN(C(=S)S)CC2)CC1,survivor count,"T/C endpoint: mean survival time, dose: 400.0 mg/kg/injection, schedule: Q01DX009 (ip), vehicle: saline with Tween-80",5 of 6
Cc1c(CN(C)C)cccc1C(=O)Nc1ccccc1,survivor count,[4],2 of 4
CCCCS/C=C1/CC2(C)C(CCC3C4CCC(O)C4(C)CCC32)CC1=O (centres undefined),survivor count,[1],6 of 6
[N-]=[N+]=NCc1cnccn1,survivor count,"T/C endpoint: mean survival time, dose: 50.0 mg/kg/injection, schedule: Q01DX009 (ip), vehicle: saline",1 of 6
same,survivor count,"T/C endpoint: mean survival time, dose: 100.0 mg/kg/injection, schedule: Q04DX003 (ip), vehicle: saline",4 of 6
same,survivor count,[5],0 of 6
same,survivor count,[6],0 of 6
CCN(CC)CC(=O)N1Cc2ccccc2CCc2ccccc2C1,survivor count,[5],0 of 6
same,survivor count,[6],0 of 6
CCCCCc1cc(O)c(CCCC)c(O)c1,survivor count,"T/C endpoint: mean survival time, dose: 100.0 mg/kg/injection, schedule: Q04DX002 (ip), vehicle: other",3 of 3
same,survivor count,"T/C endpoint: mean survival time, dose: 200.0 mg/kg/injection, schedule: Q04DX002 (ip), vehicle: other",3 of 3
same,survivor count,"T/C endpoint: mean survival time, dose: 400.0 mg/kg/injection, schedule: Q04DX002 (ip), vehicle: other",0 of 3
CC(C)CCCC(C)C1CCC2C3CC=C4CC(=O)CCC4(C)C3CCC12C (centres undefined),survivor count,[7],3 of 3
NC(N)=NN=C(c1ccc(F)cc1)c1ccc(F)cc1,survivor count,"T/C endpoint: mean survival time, dose: 16.0 mg/kg/injection, schedule: Q01DX Z (oral), vehicle: carboxymethylcellulose (CMC)",0 of 6
same,T/C,"T/C endpoint: mean survival time, dose: 20.0 mg/kg/injection, schedule: Q01DX001 (ip), vehicle: carboxymethylcellulose (CMC)",125 % of control
same,survivor count,"T/C endpoint: mean survival time, dose: 32.0 mg/kg/injection, schedule: Q01DX Z (oral), vehicle: carboxymethylcellulose (CMC)",1 of 6
same,survivor count,"T/C endpoint: mean survival time, dose: 40.0 mg/kg/injection, schedule: Q01DX001 (ip), vehicle: carboxymethylcellulose (CMC)",2 of 6
CC12CCC(C1)C(C)(C)C2NCCCN1C(=O)c2ccc3c4c(ccc(c24)C1=O)C(=O)N(CCCNC1C2(C)CCC(C2)C1(C)C)C3=O (centres undefined),survivor count,"T/C endpoint: mean survival time, dose: 100.0 mg/kg/injection, schedule: Q01DX009 (ip), vehicle: saline",6 of 6
same,survivor count,[5],6 of 6
same,survivor count,[6],6 of 6
COc1ccc(Oc2cccc3c2CCN(C)C3)cc1,survivor count,"T/C endpoint: mean survival time, dose: 100.0 mg/kg/injection, schedule: Q04DX002 (ip), vehicle: Klucel (hydroxypropylcellulose) (HPC)",3 of 3
same,survivor count,"T/C endpoint: mean survival time, dose: 200.0 mg/kg/injection, schedule: Q04DX002 (ip), vehicle: Klucel (hydroxypropylcellulose) (HPC)",1 of 3
same,survivor count,"T/C endpoint: mean survival time, dose: 400.0 mg/kg/injection, schedule: Q04DX002 (ip), vehicle: Klucel (hydroxypropylcellulose) (HPC)",0 of 3
Nc1ncnc(Nc2ccccc2[N+](=O)[O-])c1[N+](=O)[O-],survivor count,"T/C endpoint: mean survival time, dose: 100.0 mg/kg/injection, schedule: Q01DX001 (ip), vehicle: Klucel (hydroxypropylcellulose) (HPC)",3 of 6
same,survivor count,[2],1 of 6
same,survivor count,[3],0 of 6
O=[N+]([O-])c1cccc2c1CCCC2,survivor count,"T/C endpoint: mean survival time, dose: 100.0 mg/kg/injection, schedule: Q01DX009 (ip), vehicle: saline with Tween-80",6 of 6
CN1C(=O)CC(c2ccc(N3C(=O)C=CC3=O)cc2)C1=O (centres undefined),survivor count,"T/C endpoint: mean survival time, dose: 50.0 mg/kg/injection, schedule: Q04DX002 (ip), vehicle: saline with Tween-80",1 of 3
same,survivor count,"T/C endpoint: mean survival time, dose: 100.0 mg/kg/injection, schedule: Q04DX002 (ip), vehicle: saline with Tween-80",0 of 3
same,survivor count,[7],0 of 3
same,survivor count,[8],0 of 3
CC(C)=CCC/C(C)=C/Cn1ccccc1=O,survivor count,"T/C endpoint: mean survival time, dose: 400.0 mg/kg/injection, schedule: Q01DX001 (ip), vehicle: saline with Tween-80",2 of 6
O=C(Cl)C1CCCCC1,survivor count,"T/C endpoint: mean survival time, dose: 100.0 mg/kg/injection, schedule: Q01DX015 (ip), vehicle: saline",6 of 6
same,survivor count,"T/C endpoint: mean survival time, dose: 200.0 mg/kg/injection, schedule: Q01DX015 (ip), vehicle: saline",1 of 6
CC1OC(OC2C(O)CC(OC3C(O)CC(OC4CCC5(C)C(CCC6C5CCC5(C)C(C7=CC(=O)OC7)CCC65O)C4)OC3C)OC2C)CC(O)C1O (centres undefined),survivor count,"T/C endpoint: mean survival time, dose: 64.0 mg/kg/injection, schedule: Q01DX015 (sc), vehicle: steroid suspending solution",6 of 6
same,survivor count,"T/C endpoint: median survival time, dose: 16.0 mg/kg/injection, schedule: Q04DX003 (iv), vehicle: water",7 of 8
O=C(O)C1=C(C(=O)O)C2C=CC1N2Cc1ccccc1,survivor count,"T/C endpoint: mean survival time, dose: 400.0 mg/kg/injection, schedule: Q01DX001 (ip), vehicle: other",0 of 6
Nc1cnccc1Nc1ccncc1,survivor count,"T/C endpoint: mean survival time, dose: 400.0 mg/kg/injection, schedule: Q04DX003 (ip), vehicle: saline with Tween-80",2 of 6
Clc1cc[c]([Sn]([Cl])([c]2ccc(Cl)cc2)[c]2ccc(Cl)cc2)cc1,survivor count,"T/C endpoint: mean survival time, dose: 6.25 mg/kg/injection, schedule: Q01DX009 (ip), vehicle: saline",4 of 6 and 5 of 6
same,survivor count,"T/C endpoint: mean survival time, dose: 12.5 mg/kg/injection, schedule: Q01DX009 (ip), vehicle: saline",1 of 6
same,survivor count,"T/C endpoint: mean survival time, dose: 25.0 mg/kg/injection, schedule: Q01DX009 (ip), vehicle: saline",0 of 6
same,survivor count,"T/C endpoint: mean survival time, dose: 25.0 mg/kg/injection, schedule: Q04DX002 (ip), vehicle: saline",3 of 3
same,survivor count,"T/C endpoint: mean survival time, dose: 50.0 mg/kg/injection, schedule: Q04DX002 (ip), vehicle: saline",2 of 3
same,survivor count,"T/C endpoint: mean survival time, dose: 100.0 mg/kg/injection, schedule: Q04DX002 (ip), vehicle: saline",1 of 3 and 2 of 3
same,survivor count,"T/C endpoint: mean survival time, dose: 200.0 mg/kg/injection, schedule: Q04DX002 (ip), vehicle: saline",0 of 3
same,survivor count,"T/C endpoint: mean survival time, dose: 400.0 mg/kg/injection, schedule: Q04DX002 (ip), vehicle: saline",0 of 3
O=C(Nc1ccccn1)c1ccccc1,survivor count,[7],2 of 3
same,survivor count,[8],1 of 3
CC(C)OC(=O)C#CC(=O)O,survivor count,"T/C endpoint: mean survival time, dose: 200.0 mg/kg/injection, schedule: Q01DX001 (ip), vehicle: saline",0 of 6
same,survivor count,[4],0 of 6
